Measurements: article PMC10163288
The other results are listed elsewhere or left out.

B1: il10ra_site1_normal_mot_HHH_b2_08186_000000021_0001_43_56_H_._HHH_b1_00125_0001_0000100002_0000001_0 (protein)
chain: SSSSSSDLEEEIEELLEELKQISDPERFAEVARRVLRLIYELGDEELLQELWEILKRLSSSSSSS
B2: il10ra_site1_normal_mot_HHH_b2_06786_000000018_0001_41_57_H_._HHH_b1_02372_af2_0001_0000300019_0000001_0 (protein)
chain: SSSSSVEERASEVAAEVARIAFRLNNPEILQEVWELFKRIIREGDPELLKELEELLEELRSSSSS
B3: il10ra_site1_sap_14_mot_HHH_b2_00315_000000062_0001_1_19_H_._220949193216051a94ae8351480a38c9_0001_0001_0000500009_0000002_0_0001 (protein)
chain: SSSSSDISEELQELIREAMELDTEGNPEEARKVAEEAQELAEEAGNRLFEVVIRFVLELISSSSS
B4: il10ra_site1_sap_21_mot_HHH_b2_02053_af2_000000006_0001_3_19_H_._HHH_b1_00300_0001_0000300025_0000001_0_0001_af2pred_0001 (protein)
chain: SSSSTDKHLLEVAMEILRLALEQGDEELAERIIKQLELQIKLTNDEEAQEELEELKRLLESSSSS
B5: il10ra_site1_sap_24_mot_HHH_b1_06881_000000226_0001_1_19_H_._HHH_b2_02204_0001_0000100005_0000002_0_0001 (protein)
chain: SSSSSLLERALRFWERMLEQAQERNDEESLKQLLMALEFIAKEANDEEAKEVVEEIREEFSSSSS
B6: il10ra_site1_sap_16_mot_HHH_b1_01247_af2_000000274_0001_1_19_H_._HHH_b2_06478_af2_0001_0000600022_0000001_0_0001 (protein)
chain: SSSSDAVEFLLRQAIEALKLLVEQGDREKFEHVLRMLENLAEQANDDEVERILRELEEELNSSSS
B7: il10ra_site1_sap_25_mot_HHH_b1_03277_000000286_0001_44_57_H_._HHH_b1_07496_af2_0001_0000400026_0000001_0_0001 (protein)
chain: SSSSSSMHRVYELSRRIAHLIREGDKEEAEKLLEELEEIAEEIGSPHARFLLEVLERMLKSSSSS
B8: il10ra_site1_normal_mot_2c1a291787c6f40772924d4e9068d803_0001_af2_000000222_0001_34_48_H_._HHH_b1_03643_af2_0001_0000200006_0000001_0 (protein)
chain: SSSSSDEEVQQLAARAAARAQRLGDEERVERLFQLRVKLYNEGDPRVEEELEELAREVLESSSSS
B9: il10ra_site1_sap_21_mot_HHH_b2_00277_af2_000000172_0001_1_17_H_._HHH_b1_00860_af2_0001_0000100003_0000001_0_0001 (protein)
chain: SVEERLEELLEEDPDDELVRLILEVLELLKKGDPEEAARLAQEVLRLIYRAGDPELLRLLWEIVS
B10: il10ra_site1_normal_mot_HHH_b2_00345_af2_000000013_0001_42_56_H_._HHH_b1_02372_af2_0001_0000400032_0000002_0 (protein)
chain: SSSSDVEEEAARVAQEVLRIAFRRRDPEVLQEVWELFKRIIREGDPRLLEELEELLEELRSSSSS
B11: il10ra_site1_normal_mot_HHH_b2_00277_af2_000000172_0001_1_17_H_._HHH_b2_00060_0001_0000500039_0000001_0_af2pred_0001 (protein)
chain: SSSSSSEEVRKEVEKLLEEAEHIEDPRELSYVLTRAWAIANRGNDEELKRLVEEVAKRLLSSSSS
B12: il10ra_site1_sap_17_mot_HHH_b2_05984_000000071_0001_38_52_H_._HHH_b1_08005_0001_0000300015_0000002_0_0001 (protein)
chain: SSSSTEAYEVAKRAIEEALKLWREGDDEQAREVLEEAIRIAEELGNWAAVFSLRHLLEVLRSSSS
B13: il10ra_site1_normal_mot_HHH_b2_08186_000000021_0001_43_56_H_._HHH_b1_07705_0001_0000400053_0000001_0 (protein)
chain: SSSSSDEVEEEIEELLEELKRLTDPEEFMELVRRVLQLVFKLGDAELLQELWELLKRFASSSSSS
B14: il10ra_site1_normal_mot_HHH_b1_03763_000000209_0001_22_38_H_._75682a83c85cb44ccff1401ed1a83487_0001_1_0001_0000400019_0000001_0 (protein)
chain: DEEREELTRELEELAPTPEVRRLLEELLEALKEGDAELVFKLVRRLIELVRDPRFAHILIELIIR
B15: il10ra_site1_normal_mot_HHH_b2_07579_000000275_0001_1_19_H_._HHH_b2_04470_0001_0000100008_0000001_0_af2pred_0001 (protein)
chain: SSSSSAAERVLELIREAIELLNNGNPEEAEKVLEEAKEIAEENNNLVLRHALKRIEEEIKSSSSS
B16: il10ra_site1_normal_mot_e1dd4851c59bc1cdde016f988f6856bd_0001_1_000000200_0001_16_31_H_._HEEHE_2724_af2_0001_0000200008_0000001_0_af2pred_dldesign_0_af2pred (protein)
chain: SKEDRFRLGVRAAAEIAGVKDVEVRIEDGVFKVTIHEDTPAAEELKRMVEYNAENLNVKVEVEIV
B17: il10ra_site1_normal_mot_HHH_b2_06977_000000171_0001_1_19_H_._HHH_b1_02027_af2_0001_0000100004_0000003_0 (protein)
chain: SSSSDEELQRALELSKEAVELALRGNEEEAQELLEEALELAERAGNERLARTIEFLLEALKSSSS
B18: il10ra_site1_normal_mot_HHH_b2_04274_000000146_0001_1_19_H_._5a9ba470ffdefe7bbe7d066b6a6aec3b_0001_af2_0001_0000200013_0000001_1_af2pred_0001 (protein)
chain: NELVKAIRLLLQRFADDPEVLRVLRRILKLSLEDPEEAVELLLELAEKLGDPEVEELAREVERRR
B19: il10ra_site1_sap_21_mot_HHH_b2_00345_af2_000000013_0001_42_56_H_._HHH_b1_01164_0001_0000400012_0000001_0_0001_af2pred_0001 (protein)
chain: SSSSSSERAVRLLIRAARILEKEGDPKRAEASLRLALAAAKLAGNPELEEEVQELLERLRSSSSS
B20: il10ra_site1_normal_mot_HHH_b2_01397_000000078_0001_23_39_H_._HHH_b1_01918_af2_0001_0000100012_0000002_0_af2pred_0001 (protein)
chain: SSSSDAEEAVRFLLKAAKQIEDEEKVKLTLRFARALAESANNEELKELIEEVEKELERLLSSSSS
B21: il10ra_site1_normal_mot_HHH_b2_00277_af2_000000172_0001_1_17_H_._HHH_b2_06211_0001_0000200017_0000001_1 (protein)
chain: SSSSSDVEERIQELLEEAKHIPDRAHRSYVLIEAYALAHQLGNPEILEEVREVAIRLVERSSSSS
B22: il10ra_site1_normal_mot_HHH_b1_05254_000000006_0001_1_19_H_._HHH_b2_03913_0001_0000100002_0000001_0 (protein)
chain: SSSSDEAYELVRKAIEEALKLYRNGNPEEAQRLIEEVIEELRELGNVAAVWAAEHVLRVLRSSSS
B23: il10ra_site1_sap_26_mot_HHH_b2_02354_af2_000000157_0001_40_56_H_._HHH_b1_06029_af2_0001_0000600025_0000002_0_0001 (protein)
chain: SSSSSSDLNREVYELSEEAFEIEDPEERRRVLEEALELAEEANNWAAAYAIRLALEDGSSSSSSS
B24: il10ra_site1_normal_mot_b26a303360aa2756ef5b79665ce52f45_0001_000000179_0001_1_11_H_._HHH_b1_03806_0001_0000500036_0000001_0 (protein)
chain: SSSSDLSQELHKLSREAARLLTEGNPEEAEEVLEEAEKIAKELGNEVILFSLEHLLRDIRSSSSS
B25: il10ra_site1_normal_mot_HHH_b2_02736_000000092_0001_22_38_H_._HHH_b1_07991_0001_0000100004_0000001_0 (protein)
chain: SSSSSSEEYEERVEELLERLEEVSPQEAYELLREAIELAAEANDKELFELIMEALERWLRSSSSS
B26: il10ra_site1_sap_14_mot_HHH_b1_06348_000000162_0001_1_15_H_._HHH_b1_02721_0001_0000200021_0000002_0_0001 (protein)
chain: SSSSSKEEEQLRLSLEFAEWLLREGDPEAARRIAEAALDIARRLGDEELEREIEELLREIGSSSS
B27: il10ra_site1_normal_mot_8756ee2cf497b5429c717dfc0c0bcfd6_0001_000000186_0001_1_13_H_._HHH_b1_07252_0001_0000200010_0000002_0_af2pred_0001 (protein)
chain: SSSSSEEIKEIQELSREAAELIRKGDPEEAEKLLERAFELAEELNSLNLLAVVEFLLEHVSSSSS
B28: il10ra_site1_sap_13_mot_HHH_b1_05357_000000034_0001_23_39_H_._HHH_b2_06821_0001_0000300029_0000001_0_0001_af2pred_0001 (protein)
chain: SSSSDDHERVLRLLREAIKALFEGDPEEAHELAEEALKLAEERNDPRLEEAARQVLRAIEGSSSS
B29: il10ra_site1_sap_21_mot_HHH_b1_05815_000000111_0001_1_19_H_._HHH_b2_06309_0001_0000400029_0000002_0_0001 (protein)
chain: SSSSEEEELHRLIERILHLLKEGNLEEAEELLERVRELAERLNNRAARAIVRSLEMVLEQLQSSS
B30: il10ra_site1_normal_mot_HHH_b1_01821_000000158_0001_23_39_H_._HHH_b1_05213_af2_0001_0000700023_0000001_0 (protein)
chain: SSSSSELEERVEELLEKAEELAERGDRRWLELLAEALRLVFEHGNQELLQRIWEVFKKLASSSSS
B31: il10ra_site1_normal_mot_HHH_b2_00277_af2_000000172_0001_1_17_H_._HHH_b2_04887_0001_0000100003_0000001_0_af2pred_0001 (protein)
chain: SSSSSDEEEEEVEELLEEAKHIEDPDERTYVLIRAFAVANRGNNPELKELVRRVALELSESSSSS
B32: il10ra_site1_normal_mot_HHH_b1_08477_000000091_0001_40_57_H_._HHH_eva_0771_0001_0000400014_0000001_0_af2pred_0001 (protein)
chain: SSSSSRVEAAIRDVKAAAEHLGDEEVLELVERIREEYEEGKLDPEEALKLLAKLSRRLARSSSSS
B33: il10ra_site1_sap_14_mot_HHH_b2_03438_af2_000000049_0001_18_34_H_._HHH_b1_04762_0001_0000200008_0000001_0_0001 (protein)
chain: SSSSSNEEAVEMALLAAELAKEAGDPEMAKIAVRFAEHLAEWLGDEELEELVEEVKERLSSSSSS
B34: il10ra_site1_sap_17_mot_HHH_b1_05357_000000034_0001_23_39_H_._HHH_b2_02261_0001_0000400025_0000001_0_0001 (protein)
chain: SSSSSRRAARFHLDMARQAFELNNKEDLRSLLYALEALLEITGDPELERYVEEVQELLEELSSSS
B35: il10ra_site1_normal_mot_HHH_b2_06054_000000214_0001_39_53_H_._HHH_b1_07805_0001_0000200011_0000001_0_af2pred_0001 (protein)
chain: SSSSSEFEREARELFEEAKELLEEGDPKEVVKIIRRLAELARRFDNPKAVELALRLARELFSSSS
B36: il10ra_site1_sap_22_mot_HHH_b2_00479_000000091_0001_1_12_H_._HHH_b1_07261_af2_0001_0000700024_0000001_1_0001 (protein)
chain: SSSSSDERERLLELLRQAFRLALRGDPEEAREVLEEALELAEELGDERAVKQIRDMLKALSSSSS
B37: il10ra_site1_sap_23_mot_HHH_b2_02053_af2_000000006_0001_3_19_H_._HHH_b1_01074_0001_0000700032_0000001_0_0001 (protein)
chain: SSSSDKEELSEEVLEELERLAEEGDRERFSRLAQEALRLAYELRDPELLRALWELVRRFASSSSS

Each binder was assayed against il10ra, Q13651 (assay: yeast display titration).

Apparent Kd, inactive:
B1 no binding seen
B2 no binding seen
B3 no binding seen
B4 no binding seen
B5 no binding seen
B6 no binding seen
B7 no binding seen
B8 no binding seen
B9 no binding seen
B10 no binding seen
B11 no binding seen
B12 no binding seen
B13 no binding seen
B14 no binding seen
B15 no binding seen
B16 no binding seen
B17 no binding seen
B18 no binding seen
B19 no binding seen
B20 no binding seen
B21 no binding seen
B22 no binding seen
B23 no binding seen
B24 no binding seen
B25 no binding seen
B26 no binding seen
B27 no binding seen
B28 no binding seen
B29 > 851 nM
B30 no binding seen
B31 no binding seen
B32 no binding seen
B33 no binding seen
B34 > 1280 nM
B35 no binding seen
B36 no binding seen
B37 no binding seen

2 records picked at random from the list so far:
Apparent Kd, inactive:
B36 no binding seen
B27 no binding seen
